# Test results as given in PubChem BioAssay AID1508600 (Functional Genomics Laboratory (NCATS/FGL), 2020).
# Screen size: about 53,000 sequences; about 3,700 (7%) were called active.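 The calls were made as follows: active = gene knockdowns whose robust z-score for IL-1 alpha signal is at least 2 or at most -2, so actives lie on both sides; inactive = the rest.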 The list shows a part of the results.
# Assay: Components of the Cytosolic LPS Sensing Pathway: Gene Identification via Genome-wide siRNA Screen;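 also: robust z of the log signal after scaling to non-targeting control siRNA wells of the plate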
# Details: RAW264.7 macrophages, IL-1a HTRF, actives lie on both sides, screened at 100 nM (by protocol), cells primed 5 h with Pam3CSK4 first
# In short: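 Mouse macrophage line RAW264.7 is transfected with siRNA (100 nM final), grown 48h, primed with TLR ligand Pam3CSK4 5 h and given intracellular LipidA 24 h. IL-1a in supernatant is read by HTRF and viability by luminescence.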
row,Sequence,z-score
1,GGUAAGCUCCAAUUAUGCCTT against Ubr3,inactive: 0.0463
2,GCUCCGGAACAGAUAAAACTT against Kat14,inactive: -0.485
3,GGCUCUGAAUUAACUCCAGTT against Srpk3,inactive: -0.654
4,GGAUUCUGGUGCUUUCCAGTT against Ptk7,inactive: -0.965
5,CCAUCUUCAGCAGUGGAAATT against Rph3al,inactive: -1
6,GCAAGAUCCGUACAUAGCATT against Wdr48,inactive: -1.43
7,GGAUCGCUCAUGGAUAUUUTT against Fus,inactive: -1.57
8,GGACACAAGGUCGCCAUCUTT against Tcf7l1,inactive: -0.502
9,GCAGAAGUUCUACAAUUACTT against Mei4,inactive: -1.55
10,GAAAUGUCCAUCCAAAAGCTT against Sprr2k,inactive: 0.602
11,GCUGAGUGCCAAGAUUAUATT against Gnpda1,inactive: 0.319
12,GGCAGAGAGCAACUAUAUUTT against C1galt1,inactive: 0.892
13,CCCUACACAGAUCACCUAATT against G0s2,inactive: 0.0618
14,GCCUUCAAGUAUUUGGAAGTT against Aff1,inactive: 0.723
15,GUCCCAAGAGGCUCAUUCUTT against Krtap4-13,inactive: 0.23
16,CGAUUUCAGCUUAAAGCACTT against Lmo3,inactive: 0.0353
17,GGACAAGUUGUUGGACUACTT against Hltf,inactive: -1.02
18,GCAAGAAGGUUAUUCUAUATT against Atxn3,inactive: 0.399
19,GGCUGAAAUUGAACAGUACTT against Atp6v1g1,inactive: -1.22
20,GGAUUGAGUGACGACUGACTT against Nova2,active: 2.25
21,GCCACCACAAUCAACAUGCTT against Ifitm1,inactive: -1.4
22,CCUGGUCAGUCUUACUUCUTT against Rbks,inactive: -1.17

row,Sequence,z-score
1,GGACAUUACCUCCUUUGACTT against Tbl3,inactive: -0.289
2,AAGACUGAGAGAGUCUUUUTT against Tcte3,inactive: -0.761
3,GCUAAGAUUGUCAUGAUGUTT against Bambi,inactive: -1.02
4,GGAGACAACCUGUACUCAGTT against Zfp352,active: -3.18
5,GGGAUGCAGUGACCAUAGATT against Aldh3b1,inactive: 0.485
6,CGCAAAUCUCAGGAAAGAATT against Anxa9,inactive: -0.443
7,GGUAAGAUUAAAAGACUCATT against Cpsf2,inactive: 0.994
8,GCAGGAAGGAGAUUUUAUATT against Tbpl1,inactive: -1.62
9,GGCAUCAACUUCAUGCUGATT against Olfr535,inactive: -0.231
10,GGAUCUCUUUCUUCACAGUTT against Pcdhgb7,inactive: -0.0151
11,GGUCAAAGUACUGAAGCUUTT against Mapre1,inactive: -1.65
12,GGACAAAAUCUUUGCUCUATT against Olfr1184,inactive: 0.239
13,CCUUCACAAGGACAAGUUUTT against Larp7,inactive: 0.881
14,GGUAACAUCCUAUAAAUAGTT against Arl5a,inactive: 0.271
15,GGAAACCUUUGAUUGUUCATT against Taar2,inactive: 1.59
16,GGCUUGAUUUAUGAAUGUATT against Cacnb2,inactive: -0.707
17,CCAGAUGUCAACCAAUAUATT against Best1,inactive: -0.523
18,GGAUGGACUCCAGAAAAAUTT against Mmp1b,inactive: 0.51
19,GGUACUGCUAUGAGAAACUTT against Adam22,inactive: 0.224
20,GGACAAGAUUCUAAACUGCTT against Wdr37,inactive: 1.03
21,GGACUUGAAAGAUAAAUAGTT against Crx,inactive: 0.163
22,GCUAACUGAGCUGCCGGAATT against Lrrn3,inactive: 0.264

row,Sequence,z-score
1,GCUUUUGGUACAGGAUGCCTT against 5830411N06Rik,active: -2.68
2,GCAAGAUCCAGCCCUAUCATT against Usp17lc,inactive: -0.439
3,GGACACUGGGCUUAGCACUTT against Krt31,inactive: -0.0893
4,GGAUCAUUGUUCUCUCAAGTT against Psmg2,inactive: 0.186
5,CGUUUGUGGUUAAGGUAGATT against Sh2b1,inactive: -0.427
6,CCGUUUCUAUCGAGUGAAATT against Celf2,inactive: 0.581
7,GUUGUGCAAUCAACAAGGUTT against Fam98c,active: 2.05
8,GCUAGUUCUCAUCAGCUACTT against 8030451A03Rik,inactive: 0.68
9,GCUUGCUCUAUUGCCAAUATT against Crem,inactive: 0.367
10,GCACAUUCCUAAGACAAUCTT against Sun5,inactive: 0.168
11,CGGGAACUCACCGAAAAGATT against Gramd1c,inactive: 1.55
12,CCAUAUCGAGUACCUCCAATT against Rtn4rl1,inactive: -0.522
13,UUCCUCAAUGCUUCCAUUUTT against Olfr1454,inactive: 1.45
14,GCAGACAGAUCGCUUCAACTT against Dok4,inactive: -0.882
15,GCUGAUGUAUGGAAUGCUCTT against Trappc1,inactive: -0.603
16,CGUUCUUCAGCUAUUCAUUTT against Slc37a3,inactive: 1.06
17,CGACCUAUUAGAGAGCAACTT against Zfp248,active: 2.58
18,CGCAGUAACCUGUUUGAGCTT against Amz2,inactive: 1.22
19,UUCUGUGAUCAUGUCUUCUTT against Tuba1b,inactive: -1.6
20,GGCUGUAAAACUCUGGUUUTT against Vmn1r195,active: 2.82
21,GGUAUCUCUACCUCGAGGATT against Cdk4,inactive: 0.24
22,CCAAAAUCGGGAAAGGAAATT against Ldb2,inactive: -0.00816

row,Sequence,z-score
1,GCUACAGAAUCAUACGAUGTT against Zfp521,inactive: -0.606
2,GGCAUUAAGUGCUUGCUCATT against AI837181,inactive: -1.73
3,GGGCAAUGUUCAGACUCUCTT against Klhl20,inactive: 0.861
4,GGACUGUGAUCAGGUUUGUTT against Elk3,inactive: 0.695
5,CCGAAUCCUUAAAAUCUGCTT against Zfp78,inactive: 0.0432
6,GGACGCAUGGAUCAAAAAATT against Abhd17c,inactive: 0.618
7,GCCGCUGCACACUUUCUAUTT against Trim65,inactive: -0.0927
8,GGUACAGAUCUGGUCCUACTT against Il17rc,inactive: -0.991
9,GGGCUCACACAGAAAAAUUTT against Cd244a,inactive: -0.685
10,GAUCAUCCAGCUGAAGCAGTT against Mafg,inactive: -1.35
11,GCAUAUAUUCACCACUAACTT against Mettl25,inactive: 0.116
12,GGAAACUACUCCAUGGUGATT against Olfr967,inactive: -0.564
13,CCUAAACAGCCUUAUCGAUTT against Clca3a1,inactive: 0.0828
14,CGUGCUAAACCAAGACUUATT against Lyplal1,inactive: 1.25
15,CCCUGCUGGUUGGUAAUCATT against F830005K03Rik,inactive: 0.548
16,CGUAUUCCAUGGUUUCCUATT against Whrn,inactive: 0.111
17,GGAGAUUGAACCAAAGCCUTT against Smpdl3b,inactive: 0.153
18,GGAGUUGUAGAGAAUUUAGTT against Zfp85,inactive: 1.11
19,CCGAACAAAGAACUGUUCATT against Slc25a47,inactive: 0.151
20,CCUCUGUCUGCUAAUAAGATT against R3hdm4,inactive: 1.01
21,GGAAGUGCUCUGCUGUACATT against Eml6,inactive: 0.655
22,GGAUUCCAGAUUAAAUGAUTT against Rfc1,inactive: 1.09

row,Sequence,z-score
1,GGAGGUUAGUGACUCAUUUTT against 9230112E08Rik,inactive: -1.3
2,GGACUUUUACCAGUUCUCCTT against Ece2,active: -2.43
3,GGUUGUUUGCUUACGAUGUTT against Ttll12,inactive: -0.0758
4,GGUAUGUCUGUAACUCUGGTT against Il15ra,inactive: 0.708
5,GGACUUCUAUCCACUCACGTT against Helz,inactive: -1.95
6,CCCUGUCUUUCCUAGGCCATT against Mcat,active: -3.3
7,GCUGGUUUCUUAUAGGAAGTT against Dnmt3b,inactive: 1.03
8,CGCCAGGUAGUGAUAUCAATT against Fancm,inactive: 1.81
9,GCGUGAGCUAAUGUUCACATT against Agpat2,inactive: -0.255
10,GGCAACCAUACUUCAUCUATT against Hmces,inactive: -0.0694
11,GCAUUAAAACUUCCUUUUGTT against Ubl3,inactive: 0.679
12,GCUGUAAGCAGUCCAAAUATT against Kdelr3,inactive: 1.43
13,CCAUCCUCCUACUCGUUAGTT against Vmn1r233,active: 2.03
14,CCCAUUUGGAUUCACUAACTT against Tmem132d,inactive: 0.293
15,GGCUCAGUGAAGGCAAGUUTT against Hspb2,active: 2.56
16,GGUGUUUUCUGUGCUGUGATT against Klhdc3,inactive: -1.55
17,GGCAGAUCAUUGGAUUCUATT against Tsc22d4,inactive: 1.64
18,GGGAUUGAUUUGACUCACATT against Kars,inactive: -0.0112
19,GGUUAUUUUGGGAAUAUUCTT against Ndufab1,inactive: -0.651
